Binding data for three molecules are collected here from paper doi:10.1101/2025.07.06.663356.

By UniProt entry, the sequences of proteins in these tests, tags left out.
UniProt Q8WUM4: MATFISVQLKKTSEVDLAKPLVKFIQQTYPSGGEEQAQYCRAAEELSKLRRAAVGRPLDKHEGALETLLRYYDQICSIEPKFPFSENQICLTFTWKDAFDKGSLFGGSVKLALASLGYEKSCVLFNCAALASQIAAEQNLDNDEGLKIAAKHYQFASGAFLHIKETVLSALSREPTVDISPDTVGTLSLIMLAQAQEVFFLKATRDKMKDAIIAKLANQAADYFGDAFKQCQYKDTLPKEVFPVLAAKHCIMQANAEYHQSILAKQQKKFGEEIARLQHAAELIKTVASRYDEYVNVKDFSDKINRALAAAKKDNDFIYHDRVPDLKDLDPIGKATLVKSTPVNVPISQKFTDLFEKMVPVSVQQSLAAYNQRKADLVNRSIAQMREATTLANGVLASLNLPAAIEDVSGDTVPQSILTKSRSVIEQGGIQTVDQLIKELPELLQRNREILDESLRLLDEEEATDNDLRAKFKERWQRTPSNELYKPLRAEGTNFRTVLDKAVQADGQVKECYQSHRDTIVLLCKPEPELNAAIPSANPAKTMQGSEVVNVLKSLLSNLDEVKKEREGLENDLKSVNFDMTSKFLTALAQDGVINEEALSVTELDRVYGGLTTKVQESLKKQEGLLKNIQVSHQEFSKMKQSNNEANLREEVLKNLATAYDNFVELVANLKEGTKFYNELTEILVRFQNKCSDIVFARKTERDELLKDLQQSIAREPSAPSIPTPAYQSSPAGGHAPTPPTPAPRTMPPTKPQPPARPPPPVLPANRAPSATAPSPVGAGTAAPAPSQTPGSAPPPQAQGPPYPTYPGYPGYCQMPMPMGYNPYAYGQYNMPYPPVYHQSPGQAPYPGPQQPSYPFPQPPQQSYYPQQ
UniProt Q96B97: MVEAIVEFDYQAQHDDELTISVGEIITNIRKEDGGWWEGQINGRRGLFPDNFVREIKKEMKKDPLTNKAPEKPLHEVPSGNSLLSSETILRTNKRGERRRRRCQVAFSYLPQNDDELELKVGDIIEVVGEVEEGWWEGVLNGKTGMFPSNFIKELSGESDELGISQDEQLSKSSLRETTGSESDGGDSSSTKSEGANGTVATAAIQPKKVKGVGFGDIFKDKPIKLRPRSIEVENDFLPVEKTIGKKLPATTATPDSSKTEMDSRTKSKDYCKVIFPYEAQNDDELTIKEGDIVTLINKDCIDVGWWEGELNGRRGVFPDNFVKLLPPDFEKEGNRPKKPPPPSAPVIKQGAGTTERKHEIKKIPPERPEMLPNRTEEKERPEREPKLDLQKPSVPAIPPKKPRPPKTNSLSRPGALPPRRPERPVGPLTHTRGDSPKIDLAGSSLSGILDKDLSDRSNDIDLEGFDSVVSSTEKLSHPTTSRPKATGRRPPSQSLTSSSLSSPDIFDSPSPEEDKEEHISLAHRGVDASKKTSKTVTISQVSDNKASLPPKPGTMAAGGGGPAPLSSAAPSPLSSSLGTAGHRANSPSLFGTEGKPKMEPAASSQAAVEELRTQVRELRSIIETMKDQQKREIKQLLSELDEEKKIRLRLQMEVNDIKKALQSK

The target of this test is ALIX (ALG-2 interacting protein X), endogenous (human (endogenous in HCC1187, BT-549, MDA-MB-231, HeLa, HEK-293T)) (UniProt Q8WUM4). As to the kind of experiment: affinity purification with mass spectrometry.

No constants are given. Whether binding was seen depends on the method and setting. Binding seen in cells or lysates may run through a third protein. Here binding means that the protein was enriched with, or labelled near, the bait; the list need not be complete.

Regarding “CIN85, endogenous (from UniProt Q96B97 1-665)”, the binding result is “binds”.

B1: CHMP4B, endogenous (protein, UniProt Q9H444 1-224)
chain: MSVFGKLFGAGGGKAGKGGPTPQEAIQRLRDTEEMLSKKQEFLEKKIEQELTAAKKHGTKNKRAALQALKRKKRYEKQLAQIDGTLSTIEFQREALENANTNTEVLKNMGYAAKAMKAAHDNMDIDKVDELMQDIADQQELAEEISTAISKPVGFGEEFDEDELMAELEELEQEELDKNLLEISGPETVPLPNVPSIALPSKPAKKKEEEDDDMKELENWAGSM
Consider B1, for which the binding entry was “binds”.

B2: CEP55, endogenous (protein, UniProt Q53EZ4 1-464)
chain: MSSRSTKDLIKSKWGSKPSNSKSETTLEKLKGEIAHLKTSVDEITSGKGKLTDKERHRLLEKIRVLEAEKEKNAYQLTEKDKEIQRLRDQLKARYSTTTLLEQLEETTREGERREQVLKALSEEKDVLKQQLSAATSRIAELESKTNTLRLSQTVAPNCFNSSINNIHEMEIQLKDALEKNQQWLVYDQQREVYVKGLLAKIFELEKKTETAAHSLPQQTKKPESEGYLQEEKQKCYNDLLASAKKDLEVERQTITQLSFELSEFRRKYEETQKEVHNLNQLLYSQRRADVQHLEDDRHKTEKIQKLREENDIARGKLEEEKKRSEELLSQVQFLYTSLLKQQEEQTRVALLEQQMQACTLDFENEKLDRQHVQHQLHVILKELRKARNQITQLESLKQLHEFAITEPLVTFQGETENREKVAASPKSPTAALNESLVECPKCNIQYPATEHRDLLVHVEYCSK
As for B2, the binding result was “binds”.
